Article doi:10.1101/2022.09.01.506203
Results are given in words; binding and its absence hold for the method and conditions named. In cells and extracts the contact can be indirect. A yes stands for co-enrichment or nearness to the bait. Other partners may have been found.

The chains behind the UniProt entries cited, without tags or fusion partners.
UniProt Q91ZW3: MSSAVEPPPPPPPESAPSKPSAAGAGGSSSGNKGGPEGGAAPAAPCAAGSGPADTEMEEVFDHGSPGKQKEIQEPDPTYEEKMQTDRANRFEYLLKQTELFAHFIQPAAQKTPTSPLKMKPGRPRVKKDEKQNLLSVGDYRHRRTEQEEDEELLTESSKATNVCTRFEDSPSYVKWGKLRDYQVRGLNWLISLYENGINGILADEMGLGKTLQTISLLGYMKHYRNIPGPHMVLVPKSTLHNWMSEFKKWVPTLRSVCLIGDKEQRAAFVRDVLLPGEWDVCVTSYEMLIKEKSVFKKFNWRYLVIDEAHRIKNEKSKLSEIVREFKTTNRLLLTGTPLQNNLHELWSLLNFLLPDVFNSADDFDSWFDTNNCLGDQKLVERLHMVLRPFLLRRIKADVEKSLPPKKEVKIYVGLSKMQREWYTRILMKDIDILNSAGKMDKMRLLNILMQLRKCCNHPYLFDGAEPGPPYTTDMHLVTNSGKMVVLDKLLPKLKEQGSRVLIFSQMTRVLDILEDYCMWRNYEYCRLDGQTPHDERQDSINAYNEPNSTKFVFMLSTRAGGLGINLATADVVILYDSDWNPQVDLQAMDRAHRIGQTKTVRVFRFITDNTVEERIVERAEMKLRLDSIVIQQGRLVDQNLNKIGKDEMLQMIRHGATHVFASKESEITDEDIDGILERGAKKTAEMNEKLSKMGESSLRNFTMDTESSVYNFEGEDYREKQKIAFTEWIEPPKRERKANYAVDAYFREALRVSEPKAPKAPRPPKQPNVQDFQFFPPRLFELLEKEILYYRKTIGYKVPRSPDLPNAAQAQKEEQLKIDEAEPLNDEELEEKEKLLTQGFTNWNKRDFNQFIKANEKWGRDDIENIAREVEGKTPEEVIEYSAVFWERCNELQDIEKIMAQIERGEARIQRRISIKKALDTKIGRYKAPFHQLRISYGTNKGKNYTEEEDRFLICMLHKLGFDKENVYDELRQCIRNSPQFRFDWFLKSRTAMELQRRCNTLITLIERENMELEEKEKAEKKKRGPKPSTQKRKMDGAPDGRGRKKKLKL
UniProt Q91YE5: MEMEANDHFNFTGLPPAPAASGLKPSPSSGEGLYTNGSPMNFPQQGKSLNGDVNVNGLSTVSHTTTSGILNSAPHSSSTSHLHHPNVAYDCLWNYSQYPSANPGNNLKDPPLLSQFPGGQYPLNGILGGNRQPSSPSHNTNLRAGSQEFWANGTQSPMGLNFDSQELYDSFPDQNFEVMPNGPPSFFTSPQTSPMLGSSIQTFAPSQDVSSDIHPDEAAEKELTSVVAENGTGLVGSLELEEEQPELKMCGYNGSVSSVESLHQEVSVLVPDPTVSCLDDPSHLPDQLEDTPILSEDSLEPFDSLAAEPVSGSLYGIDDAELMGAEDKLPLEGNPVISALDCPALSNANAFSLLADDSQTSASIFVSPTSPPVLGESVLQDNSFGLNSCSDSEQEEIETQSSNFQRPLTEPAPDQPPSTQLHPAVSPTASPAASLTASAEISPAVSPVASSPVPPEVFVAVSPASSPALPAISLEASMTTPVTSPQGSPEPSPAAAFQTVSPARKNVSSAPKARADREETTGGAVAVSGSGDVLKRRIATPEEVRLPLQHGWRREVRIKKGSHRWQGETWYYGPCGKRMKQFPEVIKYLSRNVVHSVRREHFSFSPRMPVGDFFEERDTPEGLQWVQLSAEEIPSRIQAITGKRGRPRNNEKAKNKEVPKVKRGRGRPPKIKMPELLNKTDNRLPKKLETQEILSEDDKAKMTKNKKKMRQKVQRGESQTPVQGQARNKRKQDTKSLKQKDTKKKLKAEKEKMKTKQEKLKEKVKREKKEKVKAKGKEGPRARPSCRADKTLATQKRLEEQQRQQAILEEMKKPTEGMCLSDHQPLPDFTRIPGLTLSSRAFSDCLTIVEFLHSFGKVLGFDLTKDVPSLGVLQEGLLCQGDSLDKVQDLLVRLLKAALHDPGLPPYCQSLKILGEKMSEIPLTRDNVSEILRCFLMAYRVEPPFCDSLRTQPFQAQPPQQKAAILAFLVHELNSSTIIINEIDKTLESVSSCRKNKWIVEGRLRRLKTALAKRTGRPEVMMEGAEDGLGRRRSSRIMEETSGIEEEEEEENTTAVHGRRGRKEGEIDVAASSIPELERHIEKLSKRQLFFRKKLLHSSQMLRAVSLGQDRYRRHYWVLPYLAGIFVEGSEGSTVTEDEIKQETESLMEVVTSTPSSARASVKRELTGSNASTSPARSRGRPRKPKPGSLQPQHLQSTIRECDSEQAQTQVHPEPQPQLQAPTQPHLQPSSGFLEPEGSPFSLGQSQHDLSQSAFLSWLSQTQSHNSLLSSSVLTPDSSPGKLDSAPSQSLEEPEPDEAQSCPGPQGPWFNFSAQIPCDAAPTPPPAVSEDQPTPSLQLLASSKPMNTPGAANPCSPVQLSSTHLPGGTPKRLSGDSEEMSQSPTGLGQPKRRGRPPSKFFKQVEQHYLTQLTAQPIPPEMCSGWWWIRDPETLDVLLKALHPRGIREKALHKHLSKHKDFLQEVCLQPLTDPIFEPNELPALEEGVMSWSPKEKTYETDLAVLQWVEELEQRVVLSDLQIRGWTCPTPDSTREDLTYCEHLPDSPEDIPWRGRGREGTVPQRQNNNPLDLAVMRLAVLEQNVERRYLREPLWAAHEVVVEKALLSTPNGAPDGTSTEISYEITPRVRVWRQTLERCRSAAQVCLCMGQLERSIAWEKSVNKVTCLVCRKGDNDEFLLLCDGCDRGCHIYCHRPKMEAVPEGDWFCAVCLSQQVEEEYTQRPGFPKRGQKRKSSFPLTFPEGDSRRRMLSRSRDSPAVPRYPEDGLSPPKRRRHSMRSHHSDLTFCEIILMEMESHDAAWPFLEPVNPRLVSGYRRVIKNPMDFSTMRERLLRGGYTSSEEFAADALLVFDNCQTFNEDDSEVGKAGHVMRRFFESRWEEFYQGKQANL
UniProt A2AUY4: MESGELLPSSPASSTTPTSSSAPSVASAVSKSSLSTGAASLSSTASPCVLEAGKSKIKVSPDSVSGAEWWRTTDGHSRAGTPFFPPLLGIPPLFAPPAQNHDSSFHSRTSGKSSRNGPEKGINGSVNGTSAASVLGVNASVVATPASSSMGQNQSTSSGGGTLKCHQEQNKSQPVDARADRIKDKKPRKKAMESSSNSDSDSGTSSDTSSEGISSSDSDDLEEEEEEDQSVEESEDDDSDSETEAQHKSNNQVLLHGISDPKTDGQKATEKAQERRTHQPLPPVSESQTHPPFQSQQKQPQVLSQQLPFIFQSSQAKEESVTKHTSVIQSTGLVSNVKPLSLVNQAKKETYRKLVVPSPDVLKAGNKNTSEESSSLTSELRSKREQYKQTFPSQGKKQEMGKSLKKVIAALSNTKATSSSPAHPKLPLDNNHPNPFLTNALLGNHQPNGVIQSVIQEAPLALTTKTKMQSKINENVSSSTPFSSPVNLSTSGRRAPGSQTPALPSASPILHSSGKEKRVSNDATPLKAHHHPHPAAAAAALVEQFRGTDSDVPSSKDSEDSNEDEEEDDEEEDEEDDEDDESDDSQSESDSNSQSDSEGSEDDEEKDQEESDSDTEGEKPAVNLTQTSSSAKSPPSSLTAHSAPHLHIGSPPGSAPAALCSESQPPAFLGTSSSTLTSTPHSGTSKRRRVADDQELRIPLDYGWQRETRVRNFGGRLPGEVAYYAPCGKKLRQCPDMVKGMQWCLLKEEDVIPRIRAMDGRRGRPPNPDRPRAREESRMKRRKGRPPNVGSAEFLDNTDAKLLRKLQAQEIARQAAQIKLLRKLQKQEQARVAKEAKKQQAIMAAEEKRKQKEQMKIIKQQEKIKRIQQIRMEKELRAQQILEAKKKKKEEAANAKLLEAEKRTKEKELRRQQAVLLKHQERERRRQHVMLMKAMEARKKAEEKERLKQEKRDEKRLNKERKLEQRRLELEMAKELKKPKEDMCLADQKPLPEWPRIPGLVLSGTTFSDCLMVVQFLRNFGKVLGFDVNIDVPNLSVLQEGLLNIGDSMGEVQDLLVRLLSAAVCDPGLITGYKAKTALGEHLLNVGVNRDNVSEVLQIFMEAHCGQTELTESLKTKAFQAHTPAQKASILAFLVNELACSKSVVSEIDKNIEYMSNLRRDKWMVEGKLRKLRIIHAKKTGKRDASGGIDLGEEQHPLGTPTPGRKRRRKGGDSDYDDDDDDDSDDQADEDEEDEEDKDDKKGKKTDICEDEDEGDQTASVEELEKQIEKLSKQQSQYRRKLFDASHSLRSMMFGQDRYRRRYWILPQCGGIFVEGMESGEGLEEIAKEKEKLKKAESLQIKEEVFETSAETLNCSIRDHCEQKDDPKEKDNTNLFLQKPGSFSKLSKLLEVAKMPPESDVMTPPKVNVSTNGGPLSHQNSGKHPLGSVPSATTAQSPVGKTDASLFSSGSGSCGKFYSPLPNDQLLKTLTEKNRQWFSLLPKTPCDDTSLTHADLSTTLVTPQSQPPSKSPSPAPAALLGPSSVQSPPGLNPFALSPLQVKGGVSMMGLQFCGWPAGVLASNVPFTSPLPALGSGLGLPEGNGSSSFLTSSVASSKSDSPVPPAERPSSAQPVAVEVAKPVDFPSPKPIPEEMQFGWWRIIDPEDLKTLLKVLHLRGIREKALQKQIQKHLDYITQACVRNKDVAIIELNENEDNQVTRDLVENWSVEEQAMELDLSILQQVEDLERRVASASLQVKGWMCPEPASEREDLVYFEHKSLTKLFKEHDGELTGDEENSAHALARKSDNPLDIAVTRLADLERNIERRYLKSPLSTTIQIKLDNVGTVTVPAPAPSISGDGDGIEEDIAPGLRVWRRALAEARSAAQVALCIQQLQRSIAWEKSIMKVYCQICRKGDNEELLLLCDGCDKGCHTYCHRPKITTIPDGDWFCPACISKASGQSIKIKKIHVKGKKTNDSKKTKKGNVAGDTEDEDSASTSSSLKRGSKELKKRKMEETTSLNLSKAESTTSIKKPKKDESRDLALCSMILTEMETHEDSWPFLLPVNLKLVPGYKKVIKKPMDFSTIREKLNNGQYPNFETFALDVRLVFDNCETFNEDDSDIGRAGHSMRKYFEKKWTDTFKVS
UniProt E9Q2Z1: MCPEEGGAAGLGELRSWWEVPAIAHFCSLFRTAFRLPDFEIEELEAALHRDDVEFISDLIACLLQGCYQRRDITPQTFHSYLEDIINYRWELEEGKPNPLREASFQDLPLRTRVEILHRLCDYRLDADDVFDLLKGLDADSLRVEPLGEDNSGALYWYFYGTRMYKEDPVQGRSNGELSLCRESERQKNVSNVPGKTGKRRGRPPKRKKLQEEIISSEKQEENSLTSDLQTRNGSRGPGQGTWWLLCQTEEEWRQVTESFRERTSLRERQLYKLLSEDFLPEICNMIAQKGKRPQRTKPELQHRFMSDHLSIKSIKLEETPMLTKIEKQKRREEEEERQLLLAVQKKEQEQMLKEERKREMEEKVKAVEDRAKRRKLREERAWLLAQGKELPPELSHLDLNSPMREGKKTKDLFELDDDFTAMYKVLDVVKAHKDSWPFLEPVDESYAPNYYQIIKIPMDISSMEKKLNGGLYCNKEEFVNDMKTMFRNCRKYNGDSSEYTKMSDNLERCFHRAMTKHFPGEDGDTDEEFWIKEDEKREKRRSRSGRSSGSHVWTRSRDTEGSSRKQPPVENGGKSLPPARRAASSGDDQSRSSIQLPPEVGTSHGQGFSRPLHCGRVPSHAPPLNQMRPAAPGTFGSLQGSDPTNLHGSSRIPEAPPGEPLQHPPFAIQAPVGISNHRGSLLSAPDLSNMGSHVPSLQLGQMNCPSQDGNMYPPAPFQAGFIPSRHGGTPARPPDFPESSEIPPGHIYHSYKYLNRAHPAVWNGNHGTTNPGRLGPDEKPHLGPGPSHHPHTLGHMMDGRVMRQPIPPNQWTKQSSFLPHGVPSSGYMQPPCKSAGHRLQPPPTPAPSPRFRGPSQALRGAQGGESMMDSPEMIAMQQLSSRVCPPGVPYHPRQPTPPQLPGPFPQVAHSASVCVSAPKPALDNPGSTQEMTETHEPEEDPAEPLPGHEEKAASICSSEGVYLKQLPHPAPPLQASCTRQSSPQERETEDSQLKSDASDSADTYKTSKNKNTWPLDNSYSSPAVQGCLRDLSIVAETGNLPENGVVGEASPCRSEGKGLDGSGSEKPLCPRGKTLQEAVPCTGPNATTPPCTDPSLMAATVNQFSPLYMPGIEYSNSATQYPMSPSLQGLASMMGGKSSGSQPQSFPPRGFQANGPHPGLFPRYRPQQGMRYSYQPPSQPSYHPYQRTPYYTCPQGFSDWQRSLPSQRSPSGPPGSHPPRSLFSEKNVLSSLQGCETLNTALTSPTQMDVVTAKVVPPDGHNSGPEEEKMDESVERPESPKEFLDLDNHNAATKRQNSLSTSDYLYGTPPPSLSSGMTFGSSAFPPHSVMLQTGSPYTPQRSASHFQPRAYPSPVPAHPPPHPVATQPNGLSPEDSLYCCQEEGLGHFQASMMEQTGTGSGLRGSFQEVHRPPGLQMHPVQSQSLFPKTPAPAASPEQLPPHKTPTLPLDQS

B1: Nanog (protein, UniProt Q80Z64 1-305)
chain: MSVGLPGPHSLPSSEEASNSGNASSMPAVFHPENYSCLQGSATEMLCTEAASPRPSSEDLPLQGSPDSSTSPKQKLSSPEADKGPEEEENKVLARKQKMRTVFSQAQLCALKDRFQKQKYLSLQQMQELSSILNLSYKQVKTWFQNQRMKCKRWQKNQWLKTSNGLIQKGSAPVEYPSIHCSYPQGYLVNASGSLSMWGSQTWTNPTWSSQTWTNPTWNNQTWTNPTWSSQAWTAQSWNGQPWNAAPLHNFGEDFLQPYVQLQQNFSASDLEVNLEATRESHAHFSTPQALELFLNYSVTPPGEI
B2: Znf280d (protein, UniProt Q68FE8 1-974)
chain: MVTTYIKSDLQLDGRQFFQPKDNLKMAELFMECEEEELEPWQKKVKEVEEDDDDEPIFVAEIASSKPAISNILNRVNPSSHSRGIKNGILNRGFTASFKPTSQRCLNSASNPVAALPVNFHPESRSSDSSVIVQPFSKPGYVTNSPRVLSNNSSELLFDLTQDTGLSHYQGGPTLSIAGLNETSFLSKRPSGSDISSVNPKKPKPSENTSGIDASSVISSEKSPSVISLQVVPSQGANCSSSQSKNGTTFPRACPKCDIHFNLLDPLKNHMTYCCPDMINNFLGLTKADNLNSANEAKTLESEKGKLIMLVNDFYYGKHEGDVLEEQKTHTTFKCFSCLKVLKNNIRFMNHMKHHLELEKQSSESWEKHTTCQHCYRQFPTPFQLQCHIESTHTPHEFSTICKICELSFETEQILLQHMKDNHKPGEMPYICQVCNYRSSLFSEVESHFRTSHENTKNLLCPFCLKVIKIATPYMHHYMKHQKKGIHRCTKCRLQFLTCKEKMDHKTQHHRTFVKPKQLEGLPPGTKVTIRASVGPLQSGSSVTPSISPSTSTLQLSPPEPDNVTAKNHVKLTTSTPNTTISDPSKANETKSNGSKSKNKSKVSNMQKKQSTLSSSNKKSKVNTALRNLRLRRGVHECIECSSEVKDFANHFPTYVHCSFCRYNTSCSKAYVNHMMSFHSNRPSKRYCIFKKHSENLRGISLVCLNCDFLTDVSGLDNMATHLSQHETHSCRVLVEQVSVCIPTSERLSEIKTEAPTKGQEPVSKETARHSRAEGEPGASHSGSKQDKVPSSEEGTGCDASVCEAAAATHCEKDVTVSDTENVSSSKNILSHDPDVGTDTMEKEEKTHHACQEMELKVDQSSESTNPTEAELSSETRQGLQLTSGDVGIDQFLRQGDEPKSVNSDASDPGSVRLEPLTPSEVLEYEATEILHDGDDPSANTSDTVSDQTGGSPGGSNPCRAETAVDLADGEERS
B3: Baz1b (protein, UniProt Q9Z277 1-1479)
chain: MAPLLGRKPFPLVKPLPGEEPLFTIPHTQEAFRTREEYEARLERYSERIWTCKSTGSSQLTHKEAWEEEQEVAELLKEEFPNWYEKLVLEMVHHNTASLEKLVDSAWLEIMTKYAVGEECDFEVGKEKMLKVKIVKIHPLEKVDEEAVEKKSDGACDSPSSDKENSSQMAQDLQKKETVVKEDEGRRESINDRARRSPRKLPTSLKKGERKWAPPKFLPHKYDVKLQNEDKIISNVPADSLIRTERPPNKEILRYFIRHNALRAGTGENAPWVVEDELVKKYSLPSKFSDFLLDPYKYMTLNPSTKRRNTGSPDRKPSKKPKRDSSSLSSPLNPKLWCHVHLEKSLNGPPLKVKNSKNSKSPEEHLEGVMKIMSPNNNKLHSFHIPKKGPAAKKPGKHSDKPLKAKGRGKGILNGQKSTGNSKSPSKCVKTPKTKMKQMTLLDMAKGTQKMTRTPRSSGGVPRSSGKPHKHLPPAALHLIAYYKENKDKEDKKSALSCVISKTARLLSNEDRARLPEELRALVQKRYELLEHKKRWASMSEEQRKEYLKKKRQELKERLREKAKERREREMLERLEKQKRFEDQELGGRNLPAFRLVDTPEGLPNTLFGDVALVVEFLSCYSGLLLPDAQYPITAVSLMEALSADKGGFLYLNRVLVILLQTLLQDEIAEDYGELGMKLSEIPLTLHSVSELVRLCLRRCDVQEDSEGSETDDNKDSTPFEDNEVQDEFLEKLETSEFFELTSEEKLRILTALCHRILMTYSVQDHMETRQQVSAELWKERLAVLKEENDKKRAEKQKRKEMEARNKENGKEENVLGKVDRKKEIVKIEQQVEVEADDMISAVKSRRLLSMQAKRKREIQERETKVRLEREAEEERMRKHKAAAEKAFQEGIAKAKLVLRRTPIGTDRNHNRYWLFSNEVPGLFIEKGWVHNSIDYRFKHHRKDHSNLPDDDYCPRSKKANLGKNASVNAHHGPALEAVETTVPKQGQNLWFLCDSQKELDELLSCLHPQGIRESQLKERLEKRYQEITHSIYLARKPNLGLKSCDGNQELLNFLRSDLIEVATRLQKGGLGYMEGTSEFEARVISLEKLKDFGECVIALQASVIKKFLQGFMAPKQKKRKLQSEDSTKSEEVDEEKKMVEEAKVASALEKWKTAIREAQTFSRMHVLLGMLDACIKWDMSAENARCKVCRKKGEDDKLILCDECNKAFHLFCLRPALYEVPDGEWQCPACQPPTARRNSRGRNYTEESTSEGSEGDESGEEEEEEEEEEEEEEDYEVAGLRLRPRKTIRGKQSVIPAARPGRPPGKKSHPARRSRPKDDPEVDDLVLQTKRISRRQSLELQKCEDILHKLVKYRFSWPFREPVTRDEAEDYYDVIEHPMDFQTIQNKCSCGNYRSVQEFLTDMKQVFANAELYNCRGSHVLSCMEKTEQCLLALLQKHLPGHPYVRRKRRKFPDRLADDEGDSDSESVGQSRGRRQKK
B4: Bud31 (protein, UniProt Q6PGH1 1-144)
chain: MPKVKRSRKAPPDGWELIEPTLDELDQKMREAETEPHEGKRKVESLWPIFRIHHQKTRYIFDLFYKRKAISRELYEYCIKEGYADKNLIAKWKKQGYENLCCLRCIQTRDTNFGTNCICRVPKSKLEVGRIIECTHCGCRGCSG

What follows are molecules tested against flag-tagged Smarca5/Snf2h (endogenous Smarca5 with GFP-3XFLAG tag) (mouse) (UniProt Q91ZW3) (assay: affinity purification with mass spectrometry).

binding	Molecule
binds	Baz2a (from UniProt Q91YE5 1-1889)
binds	Arid1a (BAF250a) (from UniProt A2BH40 1-2283)
binds	Dpf2 (from UniProt Q61103 1-391)
binds	Smarce1 (from UniProt O54941 1-411)
binds	Baz2b (from UniProt A2AUY4 1-2123)
binds	Cecr2 (from UniProt E9Q2Z1 1-1453)
binds	B1
binds	B2
binds	B3
binds	B4
